# Data: the supplement of paper PMC8256030
# Several values for one entry are separate records, joined by “and”; a condition that tells them apart may be missing. Identical values can stand only once. This is one part of the list. Single values are uncertain here, since repeats match poorly.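 HEK293T cells were given each compound shortly before transfection with a reporter in which red mCherry is followed by the SARS-CoV-2 frameshift element and then GFP in the −1 frame, so GFP appears only after frameshifting.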
# How the values were obtained:
# [1] = test system: SARS-CoV-2 -1 PRF reporter mCherry-FSE-GFP(-1); experiment: mCherry (red) intensity as percent of control; higher = higher upstream reporter expression; details: 10 µM; 24 h; HEK293T
# [2] = test system: SARS-CoV-2 -1 PRF reporter mCherry-FSE-GFP(-1); experiment: percent effect, decrease of GFP/mCherry ratio (-1 PRF reporter) relative to controls; higher = stronger frameshift inhibition; details: 10 µM; 24 h; HEK293T
compound,measurement,setting,value
CC(=O)O[C@H]1C[C@H](O[C@H]2[C@@H](O)C[C@H](O[C@H]3[C@@H](O)C[C@H](O[C@H]4CC[C@@]5(C)[C@H](CC[C@@H]6[C@@H]5CC[C@]5(C)[C@@H](C7=CC(=O)OC7)CC[C@]65O)C4)O[C@@H]3C)O[C@@H]2C)O[C@H](C)[C@H]1O [acetyldigitoxin],mCherry,[1],1630%
same,percent effect,[2],-11.4%
CCCCc1oc2ccccc2c1C(=O)c1cc(I)c(OCCN(CC)CC)c(I)c1 [amiodarone],mCherry,[1],95.4% and 70.6%
same,percent effect,[2],-0.722% and 2.68%
CN1C(=O)CC(C)(c2ccccc2)C1=O (stereo unspecified) [mesuximide],mCherry,[1],78.3%
same,percent effect,[2],-4.69%
CNC(=O)c1cccc(NCC(=O)NCCc2ccc(OC)c(OC)c2)c1 [ecabapide],mCherry,[1],92.2%
same,percent effect,[2],-5.7%
Nc1ccn([C@@H]2CS[C@H](CO)O2)c(=O)n1 [lamivudine],mCherry,[1],103%
same,percent effect,[2],-0.742%
Clc1ccc(C(Cn2ccnc2)OCc2ccsc2Cl)c(Cl)c1 (stereo unspecified) [tioconazole],mCherry,[1],126%
same,percent effect,[2],-1.42%
CCCCC[C@H](O)/C=C/[C@H]1[C@H](O)CC(=O)[C@@H]1C/C=C\CCCC(=O)O [dinoprostone],mCherry,[1],102% and 97.6%
same,percent effect,[2],-5.34% and -1.22%
NCCCCCC(=O)O,mCherry,[1],80.7%
same,percent effect,[2],-2.3%
CC[C@H]1OC(=O)[C@H](C)C(=O)[C@H](C)[C@@H](O[C@@H]2O[C@H](C)C[C@H](N(C)C)[C@H]2O)[C@](C)(OC)C[C@@H](C)C(=O)[C@H](C)[C@H]2N(CCCCn3cnc(-c4cccnc4)c3)C(=O)O[C@]12C [Telithromycin],mCherry,[1],85.8%
same,percent effect,[2],-6.73%
Cc1ccccc1OCC(O)CO (stereo unspecified) [mephenesin],mCherry,[1],86.7%
same,percent effect,[2],-3.28%
CCOC(=O)c1ccc(OCCC2CCN(c3ccc(C)nn3)CC2)cc1 [pirodavir],mCherry,[1],71.4%
same,percent effect,[2],-4.93%
Cc1ncc([N+](=O)[O-])n1C [dimetridazole],mCherry,[1],107%
same,percent effect,[2],0.12%
COC(=O)[C@H]1[C@H]2C[C@@H]3c4[nH]c5cc(OC)ccc5c4CCN3C[C@H]2C[C@@H](OC(=O)c2cc(OC)c(OC)c(OC)c2)[C@@H]1OC,mCherry,[1],104%
same,percent effect,[2],-19%
CS(=O)(=O)c1ccc2c(c1)N(CCCN1CCC(C(N)=O)CC1)c1ccccc1S2 [metopimazine],mCherry,[1],69.3%
same,percent effect,[2],1.51%
CO/N=C1\C[C@]2(C[C@@H]3C[C@@H](C/C=C(\C)C[C@@H](C)/C=C/C=C4\CO[C@@H]5[C@H](O)C(C)=C[C@@H](C(=O)O3)[C@]45O)O2)O[C@H](/C(C)=C/C(C)C)[C@H]1C [moxidectin],mCherry,[1],105%
same,percent effect,[2],-1.87%
CC(NCCCCc1ccccc1)C(O)c1ccc2c(c1)CCS2 (stereo unspecified) [tibalosin],mCherry,[1],54.5%
same,percent effect,[2],-6.89%
O=C(CCCc1ccccc1)OCC(COC(=O)CCCc1ccccc1)OC(=O)CCCc1ccccc1 [glycerol phenylbutyrate],mCherry,[1],83.1%
same,percent effect,[2],2.31%
C[C@H]1[C@H](O)O[C@@H]2O[C@@]3(C)CC[C@H]4[C@H](C)CC[C@@H]1[C@@]24OO3,mCherry,[1],29.5%
same,percent effect,[2],-0.779%
CC1=C(C(=O)O)N2C(=O)[C@@H](NC(=O)[C@H](N)C3=CCC=CC3)[C@H]2SC1,mCherry,[1],88.3%
same,percent effect,[2],1.75%
NC(=O)c1cc[n+](CC2=C(C(=O)[O-])N3C(=O)[C@@H](NC(=O)Cc4cccs4)[C@H]3SC2)cc1,mCherry,[1],88.3%
same,percent effect,[2],1.21%
CC(CN1c2ccccc2Sc2cccnc21)N(C)C (stereo unspecified) [isothipendyl],mCherry,[1],88.1%
same,percent effect,[2],-3.01%
O=P(O)(O)C(Cl)(Cl)P(=O)(O)O [clodronic acid],mCherry,[1],121%
same,percent effect,[2],-3.68%
NS(=O)(=O)c1cc2c(cc1Cl)NCNS2(=O)=O [hydrochlorothiazide],mCherry,[1],115%
same,percent effect,[2],-10.3%
O=C1c2ccccc2C(=O)C1c1ccc(Cl)cc1 [clorindione],mCherry,[1],105%
same,percent effect,[2],-0.283%
CN(c1nccc(=O)[nH]1)C1CCN(c2nc3ccccc3n2Cc2ccc(F)cc2)CC1 [mizolastine],mCherry,[1],87.2%
same,percent effect,[2],1.67%
CS(=O)(=O)Nc1ccc([N+](=O)[O-])cc1Oc1ccccc1 [nimesulide],mCherry,[1],103% and 87.4%
same,percent effect,[2],-0.457% and -0.437%
Cc1ccc(-c2ncc(Cl)cc2-c2ccc(S(C)(=O)=O)cc2)cn1 [etoricoxib],mCherry,[1],329%
same,percent effect,[2],-1.8%
CN(C)CCC(c1ccccc1)c1ccccn1 (stereo unspecified) [pheniramine],mCherry,[1],110%
same,percent effect,[2],-1.49%
C[n+]1ccccc1C=NO [pralidoxime iodide],mCherry,[1],108%
same,percent effect,[2],-0.676%
C#C[C@]1(O)CC[C@H]2[C@@H]3CCC4=CCCC[C@@H]4[C@H]3C(=C)C[C@@]21CC [desogestrel],mCherry,[1],105%
same,percent effect,[2],-9.18%
Cc1c(O)c(=O)ccn1C [deferiprone],mCherry,[1],114%
same,percent effect,[2],1.68%
CN1CCc2c(c3ccccc3n2Cc2ccccc2)C1 [mebhydrolin],mCherry,[1],104%
same,percent effect,[2],-7.92%
CC/C=C\C/C=C\C/C=C\CCCCCCCC(=O)O,mCherry,[1],112% and 106%
same,percent effect,[2],-2.02% and -0.648%
CC#C[C@]1(O)CC[C@H]2[C@@H]3CCC4=CC(=O)CCC4=C3[C@@H](c3ccc(N(C)C)cc3)C[C@@]21C [mifepristone],mCherry,[1],77.1% and 96.5%
same,percent effect,[2],-3.6% and 1.42%
Cc1cc(CC(=O)O)n(C)c1C(=O)c1ccc(Cl)cc1 [zomepirac],mCherry,[1],117%
same,percent effect,[2],0.437%
Cl/C(=C\n1cncn1)c1ccc(Cl)cc1Cl [loreclezole],mCherry,[1],102%
same,percent effect,[2],-2.15%
Nc1nc2[nH]cc(CCc3ccc(C(=O)N[C@@H](CCC(=O)O)C(=O)O)cc3)c2c(=O)[nH]1 [pemetrexed],mCherry,[1],129% and 135%
same,percent effect,[2],5.09% and -1.86%
NC(=O)NCCC[C@H](N)C(=O)O,mCherry,[1],114% and 107%
same,percent effect,[2],-6.42% and -1.42%
